Assay results taken from paper PMC8961534, “Interaction with the Assembly Chaperone Ump1 Promotes Incorporation of the β7 Subunit into Half-Proteasome Precursor Complexes Driving Their Dimerization” (Biomolecules, 2022).

Chains of the proteins cited; added tags and fusions are not shown. Lines headed by an entry give the natural chain unless they say otherwise; changes in a name come on top.
UniProt P30657: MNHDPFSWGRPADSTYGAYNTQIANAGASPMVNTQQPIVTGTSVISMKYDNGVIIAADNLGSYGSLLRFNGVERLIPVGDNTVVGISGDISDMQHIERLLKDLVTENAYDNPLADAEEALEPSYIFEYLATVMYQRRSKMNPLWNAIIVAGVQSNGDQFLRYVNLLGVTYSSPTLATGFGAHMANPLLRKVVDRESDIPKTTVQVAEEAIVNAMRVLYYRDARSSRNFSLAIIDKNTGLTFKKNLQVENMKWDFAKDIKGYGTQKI
UniProt P38624: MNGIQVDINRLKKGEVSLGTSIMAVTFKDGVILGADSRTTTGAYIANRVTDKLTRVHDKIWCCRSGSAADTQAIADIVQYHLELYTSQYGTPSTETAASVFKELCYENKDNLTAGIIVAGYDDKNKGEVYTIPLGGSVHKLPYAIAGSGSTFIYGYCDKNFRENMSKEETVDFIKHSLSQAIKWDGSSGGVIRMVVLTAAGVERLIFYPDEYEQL

Experiments:
[1] = target: T1, full-length Ump1-6His (S. cerevisiae) (UniProt P38293); assay: pull-down; native extracts of E. coli expressing Ump1-6His incubated with Ni-NTA resin, washed, then incubated with purified untagged β7 versions; elution with imidazole, anti-β7 and anti-Ump1 Western blotting, LI-COR quantification (n = 3); both purified
T1 sequence: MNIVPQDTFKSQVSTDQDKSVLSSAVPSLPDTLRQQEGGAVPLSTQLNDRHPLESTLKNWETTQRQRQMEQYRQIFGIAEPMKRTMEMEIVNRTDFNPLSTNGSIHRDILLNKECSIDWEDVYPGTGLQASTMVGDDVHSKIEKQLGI

[2] = target: T2, Ump1 C-terminal part (82–148)-6His (S. cerevisiae) (UniProt P38293); assay: pull-down; Ump1-6His variants purified from E. coli extracts loaded on Ni-NTA beads; purified untagged β7 or β1 added, 1 h, 4 °C, lysis buffer (50 mM Tris-HCl pH 7.4, 150 mM NaCl, 5 mM MgCl2, 15% glycerol); washes with 20 mM imidazole; elution with imidazole, SDS-PAGE and Western blotting; both purified
T2 sequence: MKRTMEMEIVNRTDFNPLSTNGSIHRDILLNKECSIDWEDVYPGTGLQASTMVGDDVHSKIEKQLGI

[3] = target: T3, Ump1 N-terminal part (1–81)-6His (S. cerevisiae) (UniProt P38293); assay: as above
T3 sequence: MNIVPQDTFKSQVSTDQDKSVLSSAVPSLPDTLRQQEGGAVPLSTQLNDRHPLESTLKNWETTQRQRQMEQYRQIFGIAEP

[4] = target: T1, full-length Ump1-6His (S. cerevisiae); assay: as above

Row | binding [1] | binding [2] | binding [3] | binding [4] | Substance
1 | binds | binds | binds | binds | recombinant full-length β7 subunit (Pre4), untagged (from UniProt P30657)
2 |  |  |  | no binding | recombinant full-length β1 subunit (Pre3), untagged (from UniProt P38624)

Results are given in words; binding and its absence hold for the method and conditions named. Binding seen in cells or lysates may run through a third protein. Binding calls can cover weak binding; strength is not graded here. Tags and fused reporters may be left off the sequences shown.
